Consider 23 targets from the supplement of paper PMC10849652.

Protein sequences, listed by entry. Tags and fused reporters are not part of them. Lines headed by an entry give the natural chain unless they say otherwise; changes in a name come on top.
UniProt Q9Y4B5: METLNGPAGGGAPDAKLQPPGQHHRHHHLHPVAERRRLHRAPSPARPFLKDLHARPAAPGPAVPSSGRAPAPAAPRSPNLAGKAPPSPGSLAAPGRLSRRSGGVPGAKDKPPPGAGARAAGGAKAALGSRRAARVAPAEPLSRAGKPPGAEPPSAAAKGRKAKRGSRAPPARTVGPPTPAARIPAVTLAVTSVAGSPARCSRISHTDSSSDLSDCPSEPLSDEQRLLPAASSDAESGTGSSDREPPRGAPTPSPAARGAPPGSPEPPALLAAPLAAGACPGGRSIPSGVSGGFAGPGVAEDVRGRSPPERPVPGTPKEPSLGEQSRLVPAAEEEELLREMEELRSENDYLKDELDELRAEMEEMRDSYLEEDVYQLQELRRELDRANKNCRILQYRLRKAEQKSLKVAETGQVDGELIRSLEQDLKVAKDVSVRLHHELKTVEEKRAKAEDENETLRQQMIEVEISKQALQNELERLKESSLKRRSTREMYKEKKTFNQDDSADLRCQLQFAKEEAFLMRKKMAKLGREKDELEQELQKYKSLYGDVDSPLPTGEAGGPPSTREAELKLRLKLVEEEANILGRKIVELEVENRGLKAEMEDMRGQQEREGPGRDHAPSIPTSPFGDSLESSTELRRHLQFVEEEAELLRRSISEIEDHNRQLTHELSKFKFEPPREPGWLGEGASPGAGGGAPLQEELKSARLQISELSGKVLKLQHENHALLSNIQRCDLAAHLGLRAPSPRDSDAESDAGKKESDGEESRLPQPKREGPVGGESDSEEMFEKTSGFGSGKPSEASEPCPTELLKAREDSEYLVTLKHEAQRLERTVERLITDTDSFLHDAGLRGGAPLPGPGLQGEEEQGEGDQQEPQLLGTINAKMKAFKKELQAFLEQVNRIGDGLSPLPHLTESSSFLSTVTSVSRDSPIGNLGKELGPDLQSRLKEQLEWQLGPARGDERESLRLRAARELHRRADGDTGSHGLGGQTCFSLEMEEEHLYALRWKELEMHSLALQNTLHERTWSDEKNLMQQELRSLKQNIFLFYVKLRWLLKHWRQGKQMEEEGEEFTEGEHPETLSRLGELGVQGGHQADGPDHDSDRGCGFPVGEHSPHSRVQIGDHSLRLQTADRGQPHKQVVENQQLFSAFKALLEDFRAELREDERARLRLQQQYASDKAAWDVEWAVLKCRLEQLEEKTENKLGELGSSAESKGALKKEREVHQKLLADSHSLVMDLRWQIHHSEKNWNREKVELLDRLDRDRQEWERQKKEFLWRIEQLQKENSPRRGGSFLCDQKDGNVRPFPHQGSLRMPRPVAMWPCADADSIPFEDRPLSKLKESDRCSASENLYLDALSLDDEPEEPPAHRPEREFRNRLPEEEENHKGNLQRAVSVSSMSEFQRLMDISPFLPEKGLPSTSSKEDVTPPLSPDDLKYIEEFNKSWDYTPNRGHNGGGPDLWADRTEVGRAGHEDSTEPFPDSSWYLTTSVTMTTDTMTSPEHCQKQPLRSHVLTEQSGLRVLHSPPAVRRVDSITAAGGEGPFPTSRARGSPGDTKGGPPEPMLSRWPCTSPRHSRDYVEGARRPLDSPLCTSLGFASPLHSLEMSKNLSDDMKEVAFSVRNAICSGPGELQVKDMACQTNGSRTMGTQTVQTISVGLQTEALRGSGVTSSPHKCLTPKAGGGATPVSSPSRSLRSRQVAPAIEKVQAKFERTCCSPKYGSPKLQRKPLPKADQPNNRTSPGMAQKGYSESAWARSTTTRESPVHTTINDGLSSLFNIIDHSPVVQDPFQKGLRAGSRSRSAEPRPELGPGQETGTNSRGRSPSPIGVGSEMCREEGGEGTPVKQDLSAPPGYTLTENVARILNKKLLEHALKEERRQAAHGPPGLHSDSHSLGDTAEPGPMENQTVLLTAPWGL
UniProt Q96DH6: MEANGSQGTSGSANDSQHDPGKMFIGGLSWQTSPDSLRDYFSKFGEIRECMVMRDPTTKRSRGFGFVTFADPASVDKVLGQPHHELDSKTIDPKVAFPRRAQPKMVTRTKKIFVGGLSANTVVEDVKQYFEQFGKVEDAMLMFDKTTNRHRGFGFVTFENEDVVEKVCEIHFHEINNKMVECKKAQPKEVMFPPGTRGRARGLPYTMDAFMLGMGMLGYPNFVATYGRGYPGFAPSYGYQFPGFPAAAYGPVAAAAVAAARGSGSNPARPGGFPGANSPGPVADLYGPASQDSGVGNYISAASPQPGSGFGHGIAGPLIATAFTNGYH
UniProt Q13330: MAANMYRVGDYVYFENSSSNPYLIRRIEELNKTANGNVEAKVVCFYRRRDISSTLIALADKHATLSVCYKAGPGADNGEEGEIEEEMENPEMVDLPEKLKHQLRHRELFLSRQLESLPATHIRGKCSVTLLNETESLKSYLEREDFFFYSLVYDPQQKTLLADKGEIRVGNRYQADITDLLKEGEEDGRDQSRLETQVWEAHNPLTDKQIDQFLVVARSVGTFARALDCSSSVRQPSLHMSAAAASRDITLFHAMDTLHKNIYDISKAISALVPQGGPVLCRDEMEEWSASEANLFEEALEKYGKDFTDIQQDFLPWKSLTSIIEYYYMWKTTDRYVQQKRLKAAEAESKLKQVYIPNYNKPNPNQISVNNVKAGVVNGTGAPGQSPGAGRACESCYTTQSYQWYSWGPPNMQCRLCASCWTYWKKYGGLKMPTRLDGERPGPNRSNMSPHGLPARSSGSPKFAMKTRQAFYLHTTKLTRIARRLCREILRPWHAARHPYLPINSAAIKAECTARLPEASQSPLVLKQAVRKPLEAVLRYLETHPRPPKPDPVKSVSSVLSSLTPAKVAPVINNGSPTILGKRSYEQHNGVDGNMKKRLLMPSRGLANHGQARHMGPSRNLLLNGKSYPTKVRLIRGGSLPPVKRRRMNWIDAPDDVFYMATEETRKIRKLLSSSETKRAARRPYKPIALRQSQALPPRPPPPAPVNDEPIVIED
UniProt Q15390: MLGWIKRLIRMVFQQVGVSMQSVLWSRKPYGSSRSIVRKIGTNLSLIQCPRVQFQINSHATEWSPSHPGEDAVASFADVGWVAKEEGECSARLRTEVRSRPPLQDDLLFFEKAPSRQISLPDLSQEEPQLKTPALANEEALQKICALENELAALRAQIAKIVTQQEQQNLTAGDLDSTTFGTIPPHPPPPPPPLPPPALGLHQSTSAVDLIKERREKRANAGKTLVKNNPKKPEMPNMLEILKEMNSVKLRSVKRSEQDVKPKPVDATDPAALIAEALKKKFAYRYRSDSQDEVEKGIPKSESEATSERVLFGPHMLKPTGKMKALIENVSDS
UniProt Q9UBK8: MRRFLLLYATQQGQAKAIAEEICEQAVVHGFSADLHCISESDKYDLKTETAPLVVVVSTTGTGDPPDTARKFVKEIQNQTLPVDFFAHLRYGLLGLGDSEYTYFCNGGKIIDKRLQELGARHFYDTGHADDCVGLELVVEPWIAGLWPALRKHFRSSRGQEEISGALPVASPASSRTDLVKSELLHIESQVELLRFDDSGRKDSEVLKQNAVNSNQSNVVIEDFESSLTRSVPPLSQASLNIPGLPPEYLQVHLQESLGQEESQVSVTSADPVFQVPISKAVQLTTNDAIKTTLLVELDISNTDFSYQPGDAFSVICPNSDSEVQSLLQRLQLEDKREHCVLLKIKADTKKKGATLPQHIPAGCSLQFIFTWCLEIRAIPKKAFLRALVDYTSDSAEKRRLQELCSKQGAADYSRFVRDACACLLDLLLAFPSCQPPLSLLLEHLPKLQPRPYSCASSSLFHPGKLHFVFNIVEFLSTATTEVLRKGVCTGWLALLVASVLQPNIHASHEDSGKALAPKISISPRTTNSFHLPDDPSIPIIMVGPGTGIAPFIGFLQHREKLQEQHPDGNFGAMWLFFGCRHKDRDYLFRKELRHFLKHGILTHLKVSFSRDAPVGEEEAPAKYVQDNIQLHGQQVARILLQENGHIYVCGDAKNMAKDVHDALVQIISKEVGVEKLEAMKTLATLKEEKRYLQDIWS
UniProt Q9P0P8: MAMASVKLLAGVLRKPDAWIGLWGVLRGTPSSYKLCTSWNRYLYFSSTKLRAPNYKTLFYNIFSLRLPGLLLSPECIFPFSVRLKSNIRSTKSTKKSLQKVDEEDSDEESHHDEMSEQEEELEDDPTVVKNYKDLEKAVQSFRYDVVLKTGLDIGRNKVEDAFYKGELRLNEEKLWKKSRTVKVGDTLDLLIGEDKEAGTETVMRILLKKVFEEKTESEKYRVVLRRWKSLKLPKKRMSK
MTHFD1, A0A384N5Y3, UniProt A0A384N5Y3, whole entry, looked up: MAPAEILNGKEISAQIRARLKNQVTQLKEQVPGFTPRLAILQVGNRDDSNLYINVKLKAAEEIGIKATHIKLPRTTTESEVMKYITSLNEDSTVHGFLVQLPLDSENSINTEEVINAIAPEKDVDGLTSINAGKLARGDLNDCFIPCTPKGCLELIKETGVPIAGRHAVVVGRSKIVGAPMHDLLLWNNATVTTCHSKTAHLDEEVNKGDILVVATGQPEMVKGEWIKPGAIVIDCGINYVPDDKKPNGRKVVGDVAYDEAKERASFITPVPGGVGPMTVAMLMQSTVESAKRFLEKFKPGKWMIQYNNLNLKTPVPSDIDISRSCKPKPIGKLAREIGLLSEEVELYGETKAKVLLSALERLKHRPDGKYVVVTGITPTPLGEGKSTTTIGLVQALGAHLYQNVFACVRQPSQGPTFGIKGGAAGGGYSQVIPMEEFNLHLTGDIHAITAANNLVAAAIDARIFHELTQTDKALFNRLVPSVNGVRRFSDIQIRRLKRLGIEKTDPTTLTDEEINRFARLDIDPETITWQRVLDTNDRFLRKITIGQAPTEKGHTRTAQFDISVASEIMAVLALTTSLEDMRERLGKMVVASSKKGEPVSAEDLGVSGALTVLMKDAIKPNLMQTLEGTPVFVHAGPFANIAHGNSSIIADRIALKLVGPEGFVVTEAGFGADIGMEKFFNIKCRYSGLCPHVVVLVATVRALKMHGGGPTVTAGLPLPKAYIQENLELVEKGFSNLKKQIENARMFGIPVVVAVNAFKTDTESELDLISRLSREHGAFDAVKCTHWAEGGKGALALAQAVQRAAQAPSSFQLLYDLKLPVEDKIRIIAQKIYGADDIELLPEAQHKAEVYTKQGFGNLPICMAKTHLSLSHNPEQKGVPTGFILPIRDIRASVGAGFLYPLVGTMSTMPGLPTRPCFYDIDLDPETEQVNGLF
UniProt P03905, whole entry, looked up: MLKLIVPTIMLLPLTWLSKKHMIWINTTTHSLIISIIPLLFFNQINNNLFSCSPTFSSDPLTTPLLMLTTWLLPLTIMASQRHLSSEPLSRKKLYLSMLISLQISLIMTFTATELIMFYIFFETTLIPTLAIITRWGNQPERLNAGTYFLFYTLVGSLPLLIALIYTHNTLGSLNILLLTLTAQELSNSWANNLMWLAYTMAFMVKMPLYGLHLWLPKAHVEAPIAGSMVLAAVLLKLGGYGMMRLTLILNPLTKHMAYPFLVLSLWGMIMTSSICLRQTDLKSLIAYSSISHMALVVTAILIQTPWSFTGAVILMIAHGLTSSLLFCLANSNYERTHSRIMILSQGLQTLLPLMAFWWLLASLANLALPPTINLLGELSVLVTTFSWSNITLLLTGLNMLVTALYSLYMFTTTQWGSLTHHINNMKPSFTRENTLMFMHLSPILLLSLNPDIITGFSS
UniProt Q9Y6C9: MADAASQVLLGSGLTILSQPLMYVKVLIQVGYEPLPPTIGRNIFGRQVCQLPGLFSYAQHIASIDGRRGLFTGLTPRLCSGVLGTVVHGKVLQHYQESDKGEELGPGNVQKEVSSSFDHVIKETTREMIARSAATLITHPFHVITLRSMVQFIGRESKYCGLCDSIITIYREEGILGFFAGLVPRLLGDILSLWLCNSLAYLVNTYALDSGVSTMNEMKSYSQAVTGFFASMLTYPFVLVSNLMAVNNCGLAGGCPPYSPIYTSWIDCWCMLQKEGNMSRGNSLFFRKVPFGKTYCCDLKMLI
UniProt Q13496: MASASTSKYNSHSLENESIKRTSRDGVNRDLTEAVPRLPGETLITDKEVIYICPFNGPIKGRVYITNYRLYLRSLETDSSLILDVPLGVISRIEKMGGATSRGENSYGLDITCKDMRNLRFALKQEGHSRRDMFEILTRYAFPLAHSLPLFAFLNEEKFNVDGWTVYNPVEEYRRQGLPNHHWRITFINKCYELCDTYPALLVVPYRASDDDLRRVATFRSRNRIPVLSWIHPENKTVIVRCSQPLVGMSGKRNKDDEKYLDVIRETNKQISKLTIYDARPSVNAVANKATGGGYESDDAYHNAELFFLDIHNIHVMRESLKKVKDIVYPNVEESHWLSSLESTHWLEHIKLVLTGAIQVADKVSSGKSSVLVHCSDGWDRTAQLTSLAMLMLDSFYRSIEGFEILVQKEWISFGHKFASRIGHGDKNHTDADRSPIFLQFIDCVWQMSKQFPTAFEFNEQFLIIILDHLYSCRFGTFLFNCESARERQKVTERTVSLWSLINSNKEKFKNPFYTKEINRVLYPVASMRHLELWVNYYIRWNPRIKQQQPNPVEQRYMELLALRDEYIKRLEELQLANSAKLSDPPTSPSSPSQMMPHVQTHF

The list shows a part of the results.

Compound in this test: CCn1c(C(=O)N(C2CC2)C2CC2)cc2c3c(ncn3C)c(Nc3cc(C)n(C)n3)nc21
In words: log2 fold change, soluble protein after heating vs DMSO (PISA); higher = thermal stabilisation; K562 lysate, 10 uM; active = over 0.2 and 3.5 SD of the protein, either way, in both replicates (recomputed). The gist of the method: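 Soluble protein was defined as the supernatant remaining after 21,000xg for 90 min, following pooling of heated aliquots and adjustment to 0.5% NP-40 at 4°C. Before that, crude K562 extract at 1 mg/mL protein in PBS pH 7.4 with 1 mM MgCl2 was treated with 10 μM compound for 30 min and heated for 3 min across 48°C-58°C. Quantification used TMTpro 16plex LC-MS/MS with channel sums equalised, and values are log-two fold changes in thermal stability relative to solvent controls from duplicates.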
MTCL1 (UniProt Q9Y4B5): the log2 fold change was inactive: -0.079.
Under MRPS23 (UniProt Q9Y3D9) stands inactive: 0.058; under MTMR1 (UniProt Q13613), inactive: 0.03; under MSMO1 (UniProt Q15800), inactive: -0.038.
The figure for MSI2 (UniProt Q96DH6) is inactive: 0.13.
Under MRPS11 (UniProt P82912) stands inactive: -0.029; under MTOR (UniProt P42345), inactive: -0.006.
MRPL37 (UniProt Q9BZE1): the log2 fold change is inactive: -0.015.
The figure for MRPL38 (UniProt Q96DV4) is inactive: 0.058; for MRPS27 isoform 2 (UniProt Q92552) it is inactive: 0.017; for MRRF (UniProt Q96E11) it is inactive: -0.024.
The figure for MRPS6 (UniProt P82932) is inactive: 0.035; for MRPL43 isoform 4 (UniProt Q8N983) it is inactive: 0.08; for MTA1 (UniProt Q13330) it is inactive: -0.003.
The figure for MTFR1 (UniProt Q15390) is inactive: -0.029; for MRPS16 (UniProt Q9Y3D3) it is inactive: 0.028; for MTRR isoform 1 (UniProt Q9UBK8) it is inactive: -0.023.
Regarding MTRES1 (UniProt Q9P0P8), the log2 fold change was inactive: 0.
Take MTHFD1, A0A384N5Y3: the log2 fold change is inactive: 0.059.
The figure for MT-ND4 (UniProt P03905) is inactive: 0.029.
Under MTCH2 (UniProt Q9Y6C9) stands inactive: -0.012; under MRPS7 (UniProt Q9Y2R9), inactive: 0.022; under MTM1 (UniProt Q13496), inactive: -0.005.
